In publication PMC10670284:
These are yes or no findings as the source states them, for the method shown. Binding seen in cells or lysates may run through a third protein. Some entries that bind do so weakly or less than the wild type. Tags and fused reporters may be left off the sequences shown.

Target: T1, EGFP-tagged KDM2A, Q9Y2K7
T1 chain: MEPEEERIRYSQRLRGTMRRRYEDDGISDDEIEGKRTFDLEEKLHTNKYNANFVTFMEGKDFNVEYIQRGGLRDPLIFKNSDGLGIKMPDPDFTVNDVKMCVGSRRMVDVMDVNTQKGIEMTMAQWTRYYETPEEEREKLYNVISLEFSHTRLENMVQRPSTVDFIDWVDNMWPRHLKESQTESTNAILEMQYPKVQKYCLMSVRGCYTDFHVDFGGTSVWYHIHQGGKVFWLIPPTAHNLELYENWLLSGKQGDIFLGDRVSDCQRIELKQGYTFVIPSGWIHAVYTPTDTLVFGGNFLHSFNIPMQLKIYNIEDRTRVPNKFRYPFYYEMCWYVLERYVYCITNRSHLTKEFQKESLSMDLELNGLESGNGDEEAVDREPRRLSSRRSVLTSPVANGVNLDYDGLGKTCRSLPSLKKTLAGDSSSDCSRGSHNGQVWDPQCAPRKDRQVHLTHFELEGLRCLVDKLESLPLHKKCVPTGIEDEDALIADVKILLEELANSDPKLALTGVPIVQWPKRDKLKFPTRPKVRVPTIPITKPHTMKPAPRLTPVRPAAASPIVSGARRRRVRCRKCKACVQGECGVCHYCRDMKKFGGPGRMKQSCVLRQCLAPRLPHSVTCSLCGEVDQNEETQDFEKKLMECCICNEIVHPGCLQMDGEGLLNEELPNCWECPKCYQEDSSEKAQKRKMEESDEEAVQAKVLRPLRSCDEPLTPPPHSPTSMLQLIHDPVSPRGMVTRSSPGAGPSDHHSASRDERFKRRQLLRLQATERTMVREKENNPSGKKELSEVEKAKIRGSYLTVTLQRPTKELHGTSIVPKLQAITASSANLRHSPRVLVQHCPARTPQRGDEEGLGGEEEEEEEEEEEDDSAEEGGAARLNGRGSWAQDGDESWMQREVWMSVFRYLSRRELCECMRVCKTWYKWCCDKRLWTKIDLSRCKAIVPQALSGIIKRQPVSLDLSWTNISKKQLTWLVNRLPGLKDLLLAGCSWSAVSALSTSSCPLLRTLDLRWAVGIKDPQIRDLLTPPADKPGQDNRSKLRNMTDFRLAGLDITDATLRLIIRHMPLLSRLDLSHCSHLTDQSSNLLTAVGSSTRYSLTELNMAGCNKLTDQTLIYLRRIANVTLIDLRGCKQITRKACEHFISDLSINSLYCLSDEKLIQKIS
Assay: co-IP; GFP-trap (Chromotek EGFP-nanobody agarose beads): 0.5 mg whole cell extract of HEK293T cells overexpressing an EGFP-tagged protein, 2 h at +4 °C; extracts diluted to 150 mM NaCl and 0.1% NP-40; co-trapped proteins shown by Western blot
Details: remark: other sources report otherwise

B1: beta-catenin (endogenous), P35222 1-781 (protein)
chain: MATQADLMELDMAMEPDRKAAVSHWQQQSYLDSGIHSGATTTAPSLSGKGNPEEEDVDTSQVLYEWEQGFSQSFTQEQVADIDGQYAMTRAQRVRAAMFPETLDEGMQIPSTQFDAAHPTNVQRLAEPSQMLKHAVVNLINYQDDAELATRAIPELTKLLNDEDQVVVNKAAVMVHQLSKKEASRHAIMRSPQMVSAIVRTMQNTNDVETARCTAGTLHNLSHHREGLLAIFKSGGIPALVKMLGSPVDSVLFYAITTLHNLLLHQEGAKMAVRLAGGLQKMVALLNKTNVKFLAITTDCLQILAYGNQESKLIILASGGPQALVNIMRTYTYEKLLWTTSRVLKVLSVCSSNKPAIVEAGGMQALGLHLTDPSQRLVQNCLWTLRNLSDAATKQEGMEGLLGTLVQLLGSDDINVVTCAAGILSNLTCNNYKNKMMVCQVGGIEALVRTVLRAGDREDITEPAICALRHLTSRHQEAEMAQNAVRLHYGLPVVVKLLHPPSHWPLIKATVGLIRNLALCPANHAPLREQGAIPRLVQLLVRAHQDTQRRTSMGGTQQQFVEGVRMEEIVEGCTGALHILARDVHNRIVIRGLNTIPLFVQLLYSPIENIQRVAAGVLCELAQDKEAAEAIEAEGATAPLTELLHSRNEGVATYAAAVLFRMSEDKPQDYKKRLSVELTSSLFRTEPMAWNETADLGLDIGAQGEPLGYRQDDPSYRSFHSGGYGQDALGMDPMMEHEMGGHHPGADYPVDGLPDLGHAQDLMDGLPPGDSNQLAWFDTDL
binding: binds
